Measured values from article PMC5500891.
No constants are given. Whether binding was seen depends on the method and setting. Binding seen in cells or lysates may run through a third protein. Some results given as binding are weak or reduced against the parent protein; the word gives no strength. For some of these results: Tags and fused reporters may be left off the sequences shown. Each block holds one binder with its values, some of them ahead of it.

Sequences of proteins named here, by UniProt entry; tags and fusion partners are left off.
UniProt Q8R0K9: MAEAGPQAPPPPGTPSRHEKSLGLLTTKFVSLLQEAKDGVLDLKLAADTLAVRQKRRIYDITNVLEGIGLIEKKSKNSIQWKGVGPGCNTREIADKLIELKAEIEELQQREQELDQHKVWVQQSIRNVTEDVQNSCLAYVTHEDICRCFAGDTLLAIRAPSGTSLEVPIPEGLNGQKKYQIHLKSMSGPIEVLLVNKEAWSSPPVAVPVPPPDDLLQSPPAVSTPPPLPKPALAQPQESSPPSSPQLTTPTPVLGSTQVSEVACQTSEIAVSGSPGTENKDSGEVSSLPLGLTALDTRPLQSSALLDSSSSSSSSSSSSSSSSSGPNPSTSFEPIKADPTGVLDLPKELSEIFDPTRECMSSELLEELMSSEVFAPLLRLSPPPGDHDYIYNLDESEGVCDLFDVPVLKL

How the values were obtained:
[1] = target: E2f4 (endogenous, mouse airway epithelial cells) (mouse (endogenous in mTEC ALI cultures)) (UniProt Q8R0K9); assay: proximity ligation; fixed ALI cultures from E2f4 f/f; R26 CreERT2/+ airway progenitors, anti-E2f4 and anti-Deup1 primary antibodies; tamoxifen-treated (E2f4-deficient) cultures as negative control
[2] = target: E2f4 (endogenous, mouse airway epithelial cells) (mouse (endogenous in mTEC ALI cultures)) (UniProt Q8R0K9); assay: co-IP; endogenous proteins in mTEC ALI day 3 lysate (NP-40 lysis buffer, 250 mM KCl); precipitated with anti-E2F4 agarose beads, rabbit IgG beads as control, 1-2 h on ice; blot for Deup1
[3] = target: mouse E2f4 expressed from pcDNA in 293FT cells (mouse) (UniProt Q8R0K9); assay: co-IP; 293FT cells transfected with the plasmids, NP-40 lysis buffer (250 mM KCl); precipitated with anti-E2F4 agarose beads, rabbit IgG beads as control, 1-2 h on ice; western blot

- binding [1]: binds
- binding [2]: binds
B1: Deup1 (endogenous, mouse airway epithelial cells) (protein, UniProt Q7M6Y5 1-601)
chain: MENQAHTTAGASPCEAELQELMEQIDIMVSNKKLDWERKMRALETRLDLRDQELANAQTCLDQKGQEVGLLRQKLDSLEKCNLVMTQNYEGQLQTLKAQFSKLTSNFEKLRLHQMKQNQIHRKESSSKEELPFELSSLNQKLEEFRAKSREWDKQEVLYQTHLVSLDAQQKLLSEKCSQFQKQAQNYQTQLNGKKQCAEDSSSEIPRLVCESDPGCEATQRDEFIIEKLKSAVSEIALSRNKLQDENQKLLQELKMYQRQCQAMEAGLSEVKSELQSRDDLLRIIEMERLHLHRELLRMGEVQTAQDNRKRVESSYSPSPKEAERKRKELFPMVSDQPNHEKELSKMRSQLYQEEGLCSEQERLRSEISELTQELHQKEVTIATVMKKAALLERQLKIELEIKERMLAKQQVSDRRYKAVRTENTHLKGMMGDLDPARYLAVDLSNKKHSQCTSINKLEYENERLRSDLAKLHGNGKAAWPNQSSYGEAGAYVFQSQLKTETSGDRISQDCELNRSPTPLSPLPFQTKEMASPLVGDNEVLALSPPDISFRASLAAQHFLMEEERRAKELEKLLNTHIDELQRHTEFTLNKYTKLKQSRHI

- binding [3]: binds
B2: Flag-tagged Deup1 expressed in 293FT cells (protein, UniProt Q7M6Y5 1-601)
chain: B1 chain

- binding [3]: binds
B3: human SAS6 expressed in 293FT cells (protein, UniProt Q6UVJ0 1-657)
chain: MSQVLFHQLVPLQVKCKDCEERRVSIRMSIELQSVSNPVHRKDLVIRLTDDTDPFFLYNLVISEEDFQSLKFQQGLLVDFLAFPQKFIDLLQQCTQEHAKEIPRFLLQLVSPAAILDNSPAFLNVVETNPFKHLTHLSLKLLPGNDVEIKKFLAGCLKCSKEEKLSLMQSLDDATKQLDFTRKTLAEKKQELDKLRNEWASHTAALTNKHSQELTNEKEKALQAQVQYQQQHEQQKKDLEILHQQNIHQLQNRLSELEAANKDLTERKYKGDSTIRELKAKLSGVEEELQRTKQEVLSLRRENSTLDVECHEKEKHVNQLQTKVAVLEQEIKDKDQLVLRTKEAFDTIQEQKVVLEENGEKNQVQLGKLEATIKSLSAELLKANEIIKKLQGDLKTLMGKLKLKNTVTIQQEKLLAEKEEKLQKEQKELQDVGQSLRIKEQEVCKLQEQLEATVKKLEESKQLLKNNEKLITWLNKELNENQLVRKQDVLGPSTTPPAHSSSNTIRSGISPNLNVVDGRLTYPTCGIGYPVSSAFAFQNTFPHSISAKNTSHPGSGTKVQFNLQFTKPNASLGDVQSGATISMPCSTDKENGENVGLESKYLKKREDSIPLRGLSQNLFSNSDHQRDGTLGALHTSSKPTALPSASSAYFPGQLPNS
